In the supplement of paper PMC4604168 (melanoma cell lines):
The other results are listed elsewhere or left out. Single values are uncertain, as repeats are few or missing.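 The apoptosis fraction was the count of cleaved-PARP antibody-stained nuclei relative to all DNA-stained nuclei, imaged in 1,536-well plates. Screening doses were set so most cells survived, and baseline and induced cleaved-PARP levels vary greatly across cell lines.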

Experiments:
Assay in all cases: cleaved PARP positive nuclei fraction relative to DMSO control; melanoma cells; higher = more apoptosis
Conditions in all cases: library dose: low library concentration; 72 h
[1] = test system: MZ2-MEL
[2] = test system: MeWo
[3] = test system: RPMI7951
[4] = test system: RVH-421
[5] = test system: SkMel28
[6] = test system: SkMel2
[7] = test system: SkMel30
[8] = test system: SkMel5
[9] = test system: UACC257
[10] = test system: UACC62

Compound	cleaved PARP positive nuclei fraction [1]	cleaved PARP positive nuclei fraction [2]	cleaved PARP positive nuclei fraction [3]	cleaved PARP positive nuclei fraction [4]	cleaved PARP positive nuclei fraction [5]	cleaved PARP positive nuclei fraction [6]	cleaved PARP positive nuclei fraction [7]	cleaved PARP positive nuclei fraction [8]	cleaved PARP positive nuclei fraction [9]	cleaved PARP positive nuclei fraction [10]
N#CC[C@H](C1CCCC1)n1cc(-c2ncnc3[nH]ccc23)cn1 [ruxolitinib] + O=C(Oc1ccc([N+](=O)[O-])cc1)N1CCC(C(O)(c2ccc3c(c2)OCO3)c2ccc3c(c2)OCO3)CC1 [JZL184] (first compound 1 µM, partner dose 1 µM)	134%	88.9%	86.8%	98.4%	98.6%	155%	316%	341%	38.8%	71.3%
Cn1cc(C2=C(c3cn(C4CCN(Cc5ccccn5)CC4)c4ccccc34)C(=O)NC2=O)c2ccccc21 [Enzastaurin] + O=S(=O)(c1ccccc1)N(CC(F)(F)F)c1ccc(C(O)(C(F)(F)F)C(F)(F)F)cc1 [T0901317] (first compound 0.8 µM, partner dose 1.4 µM)	78.3%	31.9%	107%	112%	218%	187%	83.7%	90.4%	335%	124%
C[As](C)SC[C@H](NC(=O)CC[C@H](N)C(=O)O)C(=O)NCC(=O)O [Darinaparsin] + Cc1cc(N2CCOCC2)cc2[nH]c(-c3c(NC[C@@H](O)c4cccc(Cl)c4)cc[nH]c3=O)nc12 [BMS536924] (first compound 0.4 µM, partner dose 0.2 µM)	135%	86.5%	67.4%	48.3%	145%	96.7%	59.6%	134%	126%	75.4%
N.N.[Cl][Pt][Cl] [cisplatin] + CN(C)S(=O)(=O)c1ccc2c(c1)/C(=C/c1cc3c([nH]1)CCCC3)C(=O)N2 [SU6656] (first compound 1.6 µM, partner dose 0.4 µM)	50.3%	182%	105%	110%	87.3%	92.6%	32.9%	47.7%	137%	36.3%
N.N.[Cl][Pt][Cl] [cisplatin] + COc1cc2c(Oc3ccc4[nH]c(C)cc4c3F)ncnc2cc1OCCCN1CCCC1 [cediranib] (first compound 1.6 µM, partner dose 0.4 µM)	47%	56.5%	147%	95%	108%	176%	130%	79.3%	70.9%	41%
Cc1ccc(Nc2nccc(N(C)c3ccc4c(C)n(C)nc4c3)n2)cc1S(N)(=O)=O [Pazopanib] + O=C(Oc1ccc([N+](=O)[O-])cc1)N1CCC(C(O)(c2ccc3c(c2)OCO3)c2ccc3c(c2)OCO3)CC1 [JZL184] (first compound 0.4 µM, partner dose 1 µM)	87.7%	41.4%	92.8%	116%	109%	76.5%	63.7%	44.3%	79%	129%
N.N.[Cl][Pt][Cl] [cisplatin] + C[C@]1(c2nc3c(C(N)=O)cccc3[nH]2)CCCN1 [Veliparib] (first compound 1.6 µM, partner dose 1.4 µM)	81.4%	74.6%	195%	94.5%	93%	120%	123%	–	–	74.8%
C[C@@H](N)c1ccc(C(=O)Nc2ccnc3[nH]ccc23)cc1 + Cc1cc(SCc2sc(-c3ccc(C(F)(F)F)c(F)c3)nc2C)ccc1OCC(=O)O [GW0742] (first compound 0.4 µM, partner dose 2 µM)	558%	94.4%	446%	231%	192%	131%	117%	282%	180%	937%
Cn1cc(C2=C(c3cn(C4CCN(Cc5ccccn5)CC4)c4ccccc34)C(=O)NC2=O)c2ccccc21 [Enzastaurin] + O=C(O)[C@@H]1[O][Sb](=[O])([O][Sb]2(=[O])[O][C@H]([C@H](O)CO)[C@H](O)[C@H](C(=O)O)[O]2)[O][C@H]([C@H](O)CO)[C@@H]1O [stibogluconate] (first compound 0.8 µM, partner dose 2 µM)	64.7%	54.2%	38.8%	76.8%	50.1%	126%	70.3%	–	–	48.5%
N.N.[Cl][Pt][Cl] [cisplatin] + Cc1ccc(NC(=O)c2cccc(N(C)C)c2)cc1NC(=O)c1ccc(O)cc1 [ZM336372] (first compound 1.6 µM, partner dose 2 µM)	122%	65%	81.8%	44.8%	55.4%	29.4%	79.8%	133%	94.6%	137%
Cn1cc(C2=C(c3cn(C4CCN(Cc5ccccn5)CC4)c4ccccc34)C(=O)NC2=O)c2ccccc21 [Enzastaurin] + CCc1ccc(CCOc2ccc(CC3SC(=O)NC3=O)cc2)nc1 [pioglitazone] (first compound 0.8 µM, partner dose 2 µM)	141%	38.7%	68.9%	88.6%	87.8%	135%	63.6%	70.5%	46.1%	50.6%
N.N.[Cl][Pt][Cl] [cisplatin] + Cn1cc(/C=C2\C(=O)Nc3cccnc32)c2ccccc21 [GW441756] (first compound 1.6 µM, partner dose 0.4 µM)	118%	218%	111%	192%	37.3%	69.8%	162%	405%	84.8%	348%
N.N.[Cl][Pt][Cl] [cisplatin] + C=C(c1ccc(C(=O)O)cc1)c1cc2c(cc1C)C(C)(C)CCC2(C)C [Bexarotene] (first compound 1.6 µM, partner dose 2 µM)	22%	119%	38.4%	75.7%	41.6%	157%	61.6%	–	–	123%
Cn1cc(C2=C(c3cn(C4CCN(Cc5ccccn5)CC4)c4ccccc34)C(=O)NC2=O)c2ccccc21 [Enzastaurin] + CNC(=O)c1cc(Oc2ccc(NC(=O)Nc3ccc(Cl)c(C(F)(F)F)c3)cc2)ccn1 [sorafenib] (first compound 0.8 µM, partner dose 0.4 µM)	90.5%	143%	182%	73.1%	88.8%	171%	34.1%	–	–	179%
Cn1cc(C2=C(c3cn(C4CCN(Cc5ccccn5)CC4)c4ccccc34)C(=O)NC2=O)c2ccccc21 [Enzastaurin] + Cn1c(Nc2ccc(C(F)(F)F)cc2)nc2cc(Oc3ccnc(-c4ncc(C(F)(F)F)[nH]4)c3)ccc21 [CHIR265] (first compound 0.8 µM, partner dose 0.08 µM)	96.9%	85.7%	79.4%	177%	101%	141%	100%	–	–	116%
N.N.[Cl][Pt][Cl] [cisplatin] + O=S(=O)(c1ccccc1)N(CC(F)(F)F)c1ccc(C(O)(C(F)(F)F)C(F)(F)F)cc1 [T0901317] (first compound 1.6 µM, partner dose 1.4 µM)	82.5%	25.1%	58.1%	143%	49.9%	60.1%	73.6%	162%	49.2%	47.9%
Cn1cc(C2=C(c3cn(C4CCN(Cc5ccccn5)CC4)c4ccccc34)C(=O)NC2=O)c2ccccc21 [Enzastaurin] + CC(C)C[C@H](NC(=O)[C@H](Cc1ccccc1)NC(=O)c1cnccn1)B(O)O [Bortezomib] (first compound 0.8 µM, partner dose 0.001 µM)	50.8%	82.7%	97.9%	66.6%	52.9%	94.7%	15.4%	–	–	31.8%
Cn1cc(C2=C(c3cn(C4CCN(Cc5ccccn5)CC4)c4ccccc34)C(=O)NC2=O)c2ccccc21 [Enzastaurin] + COc1ccc(Cl)c(Nc2nc3ccccc3nc2NS(=O)(=O)c2cccc(NC(=O)C(C)(C)N)c2)c1 [XL147] (first compound 0.8 µM, partner dose 0.8 µM)	153%	47.6%	200%	85.6%	70.2%	208%	83.7%	–	–	226%
CC(=O)c1c(C)c2cnc(Nc3ccc(N4CCNCC4)cn3)nc2n(C2CCCC2)c1=O [palbociclib] + C[As](C)SC[C@H](NC(=O)CC[C@H](N)C(=O)O)C(=O)NCC(=O)O [Darinaparsin] (first compound 0.04 µM, partner dose 0.4 µM)	127%	282%	264%	184%	48.1%	39.9%	95.2%	–	–	267%
C[As](C)SC[C@H](NC(=O)CC[C@H](N)C(=O)O)C(=O)NCC(=O)O [Darinaparsin] + COc1cc(Nc2ncc(F)c(Nc3ccc4c(n3)NC(=O)C(C)(C)O4)n2)cc(OC)c1OC [Tamatinib] (first compound 0.4 µM, partner dose 0.4 µM)	85.8%	148%	117%	39.1%	237%	140%	78.7%	49.2%	337%	100%
NC(=O)c1ccc(N(C(N)=O)c2c(F)cccc2F)nc1-c1ccc(F)cc1F + C[As](C)SC[C@H](NC(=O)CC[C@H](N)C(=O)O)C(=O)NCC(=O)O [Darinaparsin] (first compound 0.4 µM, partner dose 0.4 µM)	46.2%	167%	94.9%	138%	113%	81.5%	85.2%	–	–	83.7%

Taken from above.
Under cleaved PARP positive nuclei fraction [10], Cn1cc(C2=C(c3cn(C4CCN(Cc5ccccn5)CC4)c4ccccc34)C(=O)NC2=O)c2ccccc21 [Enzastaurin] + O=C(O)[C@@H]1[O][Sb](=[O])([O][Sb]2(=[O])[O][C@H]([C@H](O)CO)[C@H](O)[C@H](C(=O)O)[O]2)[O][C@H]([C@H](O)CO)[C@@H]1O [stibogluconate] (first compound 0.8 µM, partner dose 2 µM) is entered as 48.5%
Under cleaved PARP positive nuclei fraction [1], C[As](C)SC[C@H](NC(=O)CC[C@H](N)C(=O)O)C(=O)NCC(=O)O [Darinaparsin] + COc1cc(Nc2ncc(F)c(Nc3ccc4c(n3)NC(=O)C(C)(C)O4)n2)cc(OC)c1OC [Tamatinib] (first compound 0.4 µM, partner dose 0.4 µM) is entered as 85.8%
